In publication PMC9701216:
No constants are given. Whether binding was seen depends on the method and setting. For some of these results: Binding seen in cells or lysates may run through a third protein. Some binding calls cover weakened binding; strength is not graded here.

Chains of the proteins cited; added tags and fusions are not shown.
UniProt Q3TKT4: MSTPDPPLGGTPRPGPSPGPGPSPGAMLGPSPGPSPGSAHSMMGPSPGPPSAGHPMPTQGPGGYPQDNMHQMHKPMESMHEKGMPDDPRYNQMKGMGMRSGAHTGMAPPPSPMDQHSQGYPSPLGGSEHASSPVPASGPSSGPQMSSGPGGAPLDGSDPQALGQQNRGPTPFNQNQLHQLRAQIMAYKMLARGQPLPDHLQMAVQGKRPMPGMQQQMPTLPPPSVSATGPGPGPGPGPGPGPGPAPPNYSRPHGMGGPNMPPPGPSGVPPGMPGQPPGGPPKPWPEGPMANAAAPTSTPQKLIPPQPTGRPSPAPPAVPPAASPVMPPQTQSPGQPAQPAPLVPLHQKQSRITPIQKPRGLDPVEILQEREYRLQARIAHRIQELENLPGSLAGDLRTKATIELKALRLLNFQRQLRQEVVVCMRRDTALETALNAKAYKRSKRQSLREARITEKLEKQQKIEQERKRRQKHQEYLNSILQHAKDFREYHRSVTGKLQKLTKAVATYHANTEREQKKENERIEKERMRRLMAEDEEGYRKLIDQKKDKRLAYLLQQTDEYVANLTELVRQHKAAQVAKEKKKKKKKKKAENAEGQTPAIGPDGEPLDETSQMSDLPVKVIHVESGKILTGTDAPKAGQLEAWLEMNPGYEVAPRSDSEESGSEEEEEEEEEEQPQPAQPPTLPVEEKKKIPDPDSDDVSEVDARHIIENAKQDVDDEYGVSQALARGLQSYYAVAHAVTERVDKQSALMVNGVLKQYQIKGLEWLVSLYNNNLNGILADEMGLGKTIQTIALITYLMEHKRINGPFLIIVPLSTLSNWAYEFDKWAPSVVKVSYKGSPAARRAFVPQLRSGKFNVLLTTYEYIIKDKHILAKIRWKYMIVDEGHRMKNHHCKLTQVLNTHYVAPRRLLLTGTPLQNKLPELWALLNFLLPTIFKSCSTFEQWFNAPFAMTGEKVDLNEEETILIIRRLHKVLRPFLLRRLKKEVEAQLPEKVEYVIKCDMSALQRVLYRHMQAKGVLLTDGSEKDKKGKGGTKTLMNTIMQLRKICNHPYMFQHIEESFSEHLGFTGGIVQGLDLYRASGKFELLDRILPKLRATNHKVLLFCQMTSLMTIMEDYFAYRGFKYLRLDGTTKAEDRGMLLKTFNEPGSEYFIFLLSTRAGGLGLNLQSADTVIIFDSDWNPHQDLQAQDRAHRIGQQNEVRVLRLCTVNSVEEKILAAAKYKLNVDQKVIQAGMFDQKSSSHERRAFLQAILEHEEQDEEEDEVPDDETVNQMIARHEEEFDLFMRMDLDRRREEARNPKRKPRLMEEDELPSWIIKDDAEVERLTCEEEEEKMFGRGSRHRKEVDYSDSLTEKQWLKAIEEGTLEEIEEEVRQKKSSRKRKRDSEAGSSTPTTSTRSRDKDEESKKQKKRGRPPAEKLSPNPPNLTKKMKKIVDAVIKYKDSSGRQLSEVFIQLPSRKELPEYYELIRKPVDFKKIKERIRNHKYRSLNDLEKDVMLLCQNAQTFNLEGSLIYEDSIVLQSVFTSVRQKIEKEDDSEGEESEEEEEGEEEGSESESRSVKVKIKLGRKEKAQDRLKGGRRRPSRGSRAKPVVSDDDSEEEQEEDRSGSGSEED
UniProt O14497: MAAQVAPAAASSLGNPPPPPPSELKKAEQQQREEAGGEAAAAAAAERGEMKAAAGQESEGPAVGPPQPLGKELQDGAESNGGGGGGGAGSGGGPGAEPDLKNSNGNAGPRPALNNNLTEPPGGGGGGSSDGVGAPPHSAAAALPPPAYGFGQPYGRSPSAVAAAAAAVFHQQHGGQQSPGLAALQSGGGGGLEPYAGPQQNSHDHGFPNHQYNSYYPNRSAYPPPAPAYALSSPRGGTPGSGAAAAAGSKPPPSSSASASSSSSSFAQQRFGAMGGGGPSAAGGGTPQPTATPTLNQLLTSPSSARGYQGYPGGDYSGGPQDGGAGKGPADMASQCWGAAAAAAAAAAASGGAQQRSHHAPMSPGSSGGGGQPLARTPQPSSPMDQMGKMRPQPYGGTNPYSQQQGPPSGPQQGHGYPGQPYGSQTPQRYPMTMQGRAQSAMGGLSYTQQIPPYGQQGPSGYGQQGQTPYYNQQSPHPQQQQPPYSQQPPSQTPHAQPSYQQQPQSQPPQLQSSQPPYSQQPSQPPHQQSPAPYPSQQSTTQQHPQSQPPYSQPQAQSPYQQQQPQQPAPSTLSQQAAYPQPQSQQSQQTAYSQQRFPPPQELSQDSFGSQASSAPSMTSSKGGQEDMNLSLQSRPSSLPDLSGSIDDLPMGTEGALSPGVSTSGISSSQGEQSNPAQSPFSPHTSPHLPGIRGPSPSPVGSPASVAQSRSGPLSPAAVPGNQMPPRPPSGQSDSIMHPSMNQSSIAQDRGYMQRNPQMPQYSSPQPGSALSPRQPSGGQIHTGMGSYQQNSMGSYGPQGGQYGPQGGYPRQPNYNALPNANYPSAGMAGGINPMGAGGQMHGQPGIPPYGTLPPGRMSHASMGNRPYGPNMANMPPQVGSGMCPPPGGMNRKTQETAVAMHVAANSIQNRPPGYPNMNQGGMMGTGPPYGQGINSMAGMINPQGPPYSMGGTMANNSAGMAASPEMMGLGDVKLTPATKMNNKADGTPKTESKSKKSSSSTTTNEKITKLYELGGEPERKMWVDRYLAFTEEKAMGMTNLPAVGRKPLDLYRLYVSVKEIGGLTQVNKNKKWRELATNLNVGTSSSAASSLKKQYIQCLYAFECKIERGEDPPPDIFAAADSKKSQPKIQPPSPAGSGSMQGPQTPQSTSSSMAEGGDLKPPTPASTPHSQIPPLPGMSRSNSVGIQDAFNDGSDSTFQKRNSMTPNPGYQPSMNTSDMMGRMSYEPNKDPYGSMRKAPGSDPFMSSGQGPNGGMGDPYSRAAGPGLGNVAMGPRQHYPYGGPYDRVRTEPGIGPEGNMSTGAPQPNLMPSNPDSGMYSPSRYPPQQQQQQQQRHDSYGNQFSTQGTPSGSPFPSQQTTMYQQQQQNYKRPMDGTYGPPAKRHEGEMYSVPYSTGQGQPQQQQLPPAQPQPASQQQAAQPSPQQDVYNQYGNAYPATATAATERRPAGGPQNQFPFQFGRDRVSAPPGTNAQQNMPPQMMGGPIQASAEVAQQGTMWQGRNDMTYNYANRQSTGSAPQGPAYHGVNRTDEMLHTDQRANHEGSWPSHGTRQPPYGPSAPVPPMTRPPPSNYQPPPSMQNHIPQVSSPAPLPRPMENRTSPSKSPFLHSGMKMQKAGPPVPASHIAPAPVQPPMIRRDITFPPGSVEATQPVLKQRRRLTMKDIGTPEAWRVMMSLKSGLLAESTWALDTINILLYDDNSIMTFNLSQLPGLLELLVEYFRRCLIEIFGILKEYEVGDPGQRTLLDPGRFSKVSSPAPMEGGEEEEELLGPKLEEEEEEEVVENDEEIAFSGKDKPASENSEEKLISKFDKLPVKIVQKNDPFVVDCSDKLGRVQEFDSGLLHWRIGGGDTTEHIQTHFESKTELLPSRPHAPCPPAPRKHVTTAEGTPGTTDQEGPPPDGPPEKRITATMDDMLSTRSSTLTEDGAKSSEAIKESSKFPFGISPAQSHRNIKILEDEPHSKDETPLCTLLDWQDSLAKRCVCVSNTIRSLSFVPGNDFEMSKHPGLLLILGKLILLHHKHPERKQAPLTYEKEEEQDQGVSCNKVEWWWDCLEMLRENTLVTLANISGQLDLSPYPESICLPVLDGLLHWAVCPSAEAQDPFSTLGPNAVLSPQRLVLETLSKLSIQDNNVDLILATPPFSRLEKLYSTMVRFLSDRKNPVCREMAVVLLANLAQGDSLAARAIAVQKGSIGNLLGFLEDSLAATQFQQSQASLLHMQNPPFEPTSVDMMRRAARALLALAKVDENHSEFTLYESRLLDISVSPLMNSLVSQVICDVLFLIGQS
UniProt Q9QX66: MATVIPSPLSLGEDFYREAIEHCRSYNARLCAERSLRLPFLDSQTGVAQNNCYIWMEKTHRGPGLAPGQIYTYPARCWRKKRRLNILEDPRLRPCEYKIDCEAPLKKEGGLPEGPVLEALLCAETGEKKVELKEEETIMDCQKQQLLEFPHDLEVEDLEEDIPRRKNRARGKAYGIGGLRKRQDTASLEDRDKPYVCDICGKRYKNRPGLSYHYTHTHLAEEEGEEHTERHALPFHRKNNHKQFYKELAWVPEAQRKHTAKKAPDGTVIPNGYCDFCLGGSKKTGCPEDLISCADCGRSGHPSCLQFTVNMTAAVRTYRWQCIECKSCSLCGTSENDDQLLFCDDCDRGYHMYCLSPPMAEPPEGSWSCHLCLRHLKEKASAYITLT
UniProt Q99MR0: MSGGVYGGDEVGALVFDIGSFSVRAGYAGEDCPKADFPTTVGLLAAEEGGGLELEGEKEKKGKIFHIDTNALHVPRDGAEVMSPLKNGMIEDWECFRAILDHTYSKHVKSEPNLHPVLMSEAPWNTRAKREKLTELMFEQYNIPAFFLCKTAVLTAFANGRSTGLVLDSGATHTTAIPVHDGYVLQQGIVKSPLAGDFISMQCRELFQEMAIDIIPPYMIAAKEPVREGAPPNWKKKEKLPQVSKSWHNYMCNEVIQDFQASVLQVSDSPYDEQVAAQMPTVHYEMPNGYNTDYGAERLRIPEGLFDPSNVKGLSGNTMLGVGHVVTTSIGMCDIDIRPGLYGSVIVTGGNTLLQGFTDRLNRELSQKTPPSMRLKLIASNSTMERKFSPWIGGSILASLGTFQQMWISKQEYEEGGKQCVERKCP
UniProt P97496: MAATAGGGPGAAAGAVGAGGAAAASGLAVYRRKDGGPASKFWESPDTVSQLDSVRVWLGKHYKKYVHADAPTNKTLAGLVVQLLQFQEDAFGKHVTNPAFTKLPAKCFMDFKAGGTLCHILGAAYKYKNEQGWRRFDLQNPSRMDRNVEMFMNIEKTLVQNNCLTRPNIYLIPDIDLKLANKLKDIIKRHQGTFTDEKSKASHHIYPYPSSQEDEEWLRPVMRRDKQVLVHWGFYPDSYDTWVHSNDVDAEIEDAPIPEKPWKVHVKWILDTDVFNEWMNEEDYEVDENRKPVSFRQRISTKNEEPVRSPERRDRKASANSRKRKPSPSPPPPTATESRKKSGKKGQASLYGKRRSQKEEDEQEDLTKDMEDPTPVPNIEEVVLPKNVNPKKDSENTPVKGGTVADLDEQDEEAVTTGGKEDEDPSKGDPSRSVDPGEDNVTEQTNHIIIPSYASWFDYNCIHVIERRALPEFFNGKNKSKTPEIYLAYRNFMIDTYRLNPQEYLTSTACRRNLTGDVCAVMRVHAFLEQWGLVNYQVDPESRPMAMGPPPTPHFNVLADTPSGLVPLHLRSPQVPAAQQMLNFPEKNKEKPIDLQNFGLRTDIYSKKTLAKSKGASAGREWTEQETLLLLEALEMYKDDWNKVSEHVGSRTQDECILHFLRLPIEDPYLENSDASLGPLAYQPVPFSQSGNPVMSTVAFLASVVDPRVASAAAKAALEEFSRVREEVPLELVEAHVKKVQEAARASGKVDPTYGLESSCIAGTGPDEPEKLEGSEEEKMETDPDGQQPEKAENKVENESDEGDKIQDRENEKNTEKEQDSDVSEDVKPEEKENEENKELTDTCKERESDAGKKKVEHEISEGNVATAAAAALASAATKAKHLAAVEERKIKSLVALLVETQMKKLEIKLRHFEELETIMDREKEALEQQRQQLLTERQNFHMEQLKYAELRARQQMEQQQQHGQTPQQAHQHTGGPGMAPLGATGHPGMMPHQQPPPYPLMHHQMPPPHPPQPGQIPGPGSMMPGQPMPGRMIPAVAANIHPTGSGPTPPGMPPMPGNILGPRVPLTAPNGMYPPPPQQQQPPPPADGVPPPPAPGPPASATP

B1: IKKβ (endogenous, C4-2 cells) (enzyme, UniProt O14920 1-756)
chain: MSWSPSLTTQTCGAWEMKERLGTGGFGNVIRWHNQETGEQIAIKQCRQELSPRNRERWCLEIQIMRRLTHPNVVAARDVPEGMQNLAPNDLPLLAMEYCQGGDLRKYLNQFENCCGLREGAILTLLSDIASALRYLHENRIIHRDLKPENIVLQQGEQRLIHKIIDLGYAKELDQGSLCTSFVGTLQYLAPELLEQQKYTVTVDYWSFGTLAFECITGFRPFLPNWQPVQWHSKVRQKSEVDIVVSEDLNGTVKFSSSLPYPNNLNSVLAERLEKWLQLMLMWHPRQRGTDPTYGPNGCFKALDDILNLKLVHILNMVTGTIHTYPVTEDESLQSLKARIQQDTGIPEEDQELLQEAGLALIPDKPATQCISDGKLNEGHTLDMDLVFLFDNSKITYETQISPRPQPESVSCILQEPKRNLAFFQLRKVWGQVWHSIQTLKEDCNRLQQGQRAAMMNLLRNNSCLSKMKNSMASMSQQLKAKLDFFKTSIQIDLEKYSEQTEFGITSDKLLLAWREMEQAVELCGRENEVKLLVERMMALQTDIVDLQRSPMGRKQGGTLDDLEEQARELYRRLREKPRDQRTEGDSQEMVRLLLQAIQSFEKKVRVIYTQLSKTVVCKQKALELLPKVEEVVSLMNEDEKTVVRLQEKRQKELWNLLKIACSKVRGPVSGSPDSMNASRLSQPGQLMSQPSTASNSLPEPAKKSEELVAEAHNLCTLLENAIQDTVREQDQSFTALDWSWLQTEEEEHSCLEQAS
B2: p-IKKβ (endogenous, C4-2 cells) (enzyme, UniProt O14920 1-756)
chain: B1 chain
modifications: phosphorylated (p-IKKβ); sites not stated for this blot

How the values were obtained:
[1] = biological target: BRG1 (mouse (endogenous in prostate tumors)) (UniProt Q3TKT4); test: co-IP; anti-BRG1 antibody on lysates of Pten^PC-/- and Pten^PC-/-; Arid1a^PC-/- mouse prostate tumors, immunoblot
[2] = biological target: ARID1A (endogenous, C4-2 cells) (human (endogenous in C4-2)) (UniProt O14497); test: SEC; gel filtration of C4-2 nuclear extracts on Superose 6 Increase 10/300 GL, fractions immunoblotted; cells treated with 20 ng/ml TNFα for 30 min
[3] = biological target: ARID1A (endogenous, C4-2 cells) (human (endogenous in C4-2)) (UniProt O14497); test: co-IP; anti-ARID1A immunoprecipitates of C4-2 cells, with or without TNF-α, immunoblot; HEPES lysis buffer pH 7.4, 200 mM NaCl, 0.5% NP-40, 4 °C overnight

Row | Molecule | binding [1] | binding [2] | binding [3]
1 | ARID1B (from UniProt E9Q4N7 1-2306) | binds | – | –
2 | BAF45B (from UniProt Q9QX66 1-387) | binds | – | –
3 | BAF53B (from UniProt Q99MR0 1-426) | binds | – | –
4 | BAF155 (from UniProt P97496 1-1104) | binds | – | –
5 | B1 | – | binds | binds
6 | B2 | – | binds | –
